No constants are given. Whether binding was seen depends on the method and setting. For part of these data: Binding calls can cover weak binding; strength is not graded here. For part of these data: Tags and fused reporters may be left off the sequences shown.
Assays:
SpoIIE (B. subtilis 168) = molecular target: T1, SpoIIE (B. subtilis 168) (UniProt P37475); test: two-hybrid; Gal4 system in yeast PJ69-4A/PJ69-4α: BD baits (pGBDU-C1) mated with the AD-fusion B. subtilis genomic library (pGAD) or with AD fusions; growth on SC-LUH with 0.5 mM 3-aminotriazole and on SC-LUA at 30°C; hits retested in binary specificity matings
T1 sequence: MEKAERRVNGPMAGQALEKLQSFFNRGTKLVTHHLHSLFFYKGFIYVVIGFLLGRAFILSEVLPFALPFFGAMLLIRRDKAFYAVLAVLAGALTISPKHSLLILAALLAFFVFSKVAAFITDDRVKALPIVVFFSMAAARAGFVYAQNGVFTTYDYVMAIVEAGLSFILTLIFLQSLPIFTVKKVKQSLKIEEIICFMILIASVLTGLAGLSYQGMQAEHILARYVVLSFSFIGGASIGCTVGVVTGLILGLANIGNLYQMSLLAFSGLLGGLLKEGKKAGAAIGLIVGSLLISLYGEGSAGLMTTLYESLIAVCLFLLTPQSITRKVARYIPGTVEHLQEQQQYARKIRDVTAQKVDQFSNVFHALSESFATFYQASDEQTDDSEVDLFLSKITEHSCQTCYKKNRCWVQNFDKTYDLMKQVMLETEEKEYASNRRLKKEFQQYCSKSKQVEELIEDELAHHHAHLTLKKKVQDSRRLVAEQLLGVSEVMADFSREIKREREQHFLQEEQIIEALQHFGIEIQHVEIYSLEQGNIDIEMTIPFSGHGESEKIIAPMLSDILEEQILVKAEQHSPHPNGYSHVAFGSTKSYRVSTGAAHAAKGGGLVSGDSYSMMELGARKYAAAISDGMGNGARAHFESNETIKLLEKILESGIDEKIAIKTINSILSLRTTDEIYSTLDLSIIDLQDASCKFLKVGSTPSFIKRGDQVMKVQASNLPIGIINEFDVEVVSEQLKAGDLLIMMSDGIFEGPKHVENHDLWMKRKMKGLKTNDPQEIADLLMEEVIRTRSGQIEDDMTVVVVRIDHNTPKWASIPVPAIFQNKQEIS

YabT (B. subtilis 168) = molecular target: T2, YabT (B. subtilis 168) (UniProt P37562); test: as above
T2 sequence: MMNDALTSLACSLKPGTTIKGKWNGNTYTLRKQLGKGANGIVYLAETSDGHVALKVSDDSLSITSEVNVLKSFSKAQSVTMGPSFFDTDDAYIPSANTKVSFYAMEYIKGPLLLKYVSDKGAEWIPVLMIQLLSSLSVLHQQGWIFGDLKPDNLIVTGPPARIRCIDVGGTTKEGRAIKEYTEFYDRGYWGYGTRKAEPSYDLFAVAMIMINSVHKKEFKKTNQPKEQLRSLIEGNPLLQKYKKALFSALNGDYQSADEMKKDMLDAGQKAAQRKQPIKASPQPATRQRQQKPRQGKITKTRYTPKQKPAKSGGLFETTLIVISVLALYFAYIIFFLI

TkmA (B. subtilis 168) = test: as above
TkmB (B. subtilis 168) = test: as above
PtkA (B. subtilis 168) = test: as above
[1] = molecular target: PtkA (purified) (B. subtilis 168); test: far-Western; PtkA, MinC and TkmA separated by 12% SDS-PAGE, transferred to nitrocellulose and renatured; probed with Strep-tagged MinD labelled with Strep-Tactin-HRP in TBS-T (50 mM Tris pH 7.5, 150 mM NaCl, 0.05% Tween 20) with 1% BSA; AEC staining; both purified
[2] = molecular target: TkmA (purified) (B. subtilis 168); test: as above
PtkB (B. subtilis 168) = test: two-hybrid; Gal4 system in yeast PJ69-4A/PJ69-4α: BD baits (pGBDU-C1) mated with the AD-fusion B. subtilis genomic library (pGAD) or with AD fusions; growth on SC-LUH with 0.5 mM 3-aminotriazole and on SC-LUA at 30°C; hits retested in binary specificity matings

Question: With “AD-RacA fusion (aa 81-194/194) (B. subtilis) (domain or fragment)” as the molecule, how does the binding (SpoIIE (B. subtilis 168)) read?
Answer: binds

Question: What about the binding (YabT (B. subtilis 168)) of the same molecule?
Answer: binds

Question: How did the binding (SpoIIE (B. subtilis 168)) turn out when XhlA (B. subtilis) was run?
Answer: binds

Question: What about the binding (YabT (B. subtilis 168)) of the same molecule?
Answer: binds

Question: Which binding (YabT (B. subtilis 168)) does the source give for PtkB (B. subtilis 168) (enzyme) here?
Answer: binds

Question: How did the binding (SpoIIE (B. subtilis 168)) turn out when SbcE (B. subtilis) was run?
Answer: binds

Question: And the binding (YabT (B. subtilis 168))?
Answer: binds

Question: For YkcC (B. subtilis), which binding (SpoIIE (B. subtilis 168)) is on record?
Answer: binds

Question: And the binding (YabT (B. subtilis 168))?
Answer: binds

B1: YabT (enzyme, UniProt P37562 1-338)
chain: MMNDALTSLACSLKPGTTIKGKWNGNTYTLRKQLGKGANGIVYLAETSDGHVALKVSDDSLSITSEVNVLKSFSKAQSVTMGPSFFDTDDAYIPSANTKVSFYAMEYIKGPLLLKYVSDKGAEWIPVLMIQLLSSLSVLHQQGWIFGDLKPDNLIVTGPPARIRCIDVGGTTKEGRAIKEYTEFYDRGYWGYGTRKAEPSYDLFAVAMIMINSVHKKEFKKTNQPKEQLRSLIEGNPLLQKYKKALFSALNGDYQSADEMKKDMLDAGQKAAQRKQPIKASPQPATRQRQQKPRQGKITKTRYTPKQKPAKSGGLFETTLIVISVLALYFAYIIFFLI
Question: With B1 as the molecule, how does the binding (TkmA (B. subtilis 168)) read?
Answer: binds

B2: YvcJ (protein, UniProt O06973 1-295)
chain: MSVSESHDIQLVIITGMSGAGKTVAIQSFEDLGYFCVDNLPPSLLPKFLELMKESNSKMSKVALVMDLRGREFFDRLIEALDEMAENPWITPRILFLDAKDSILVTRYKETRRSHPLAATGLPLEGIALERELLEELKGRSQIIYDTSDMKPRDLREKIVKHFATNQGETFTVNVMSFGFKYGIPIDADLVFDVRFLPNPYYIESMRPLTGKDKEVSSYVMKWNETQKFNEKLIDLLSFMLPSYKREGKSQVVIAIGCTGGQHRSVTLAENLADYFKKDYYTHVTHRDIEKRSRK
Question: For B2, which binding (TkmB (B. subtilis 168)) is on record?
Answer: binds

B3: RsbT (enzyme, UniProt P42411 1-133)
chain: MNDQSCVRIMTEWDIVAARQLGRNVAKELGFGTVDQARITTAISELARNIYLYAGKGQIGIEQVADRGKKGLKIIAEDQGPGIPDIRKVMEDGFSTSGGLGAGLPGVKRLMDEFSLNSVAGEGTEIQAIKWLR
Question: For B3, which binding (PtkA (B. subtilis 168)) is on record?
Answer: binds

B4: PtpZ (enzyme, UniProt P96717 1-254)
chain: MIDIHCHILPAMDDGAGDSADSIEMARAAVRQGIRTIIATPHHNNGVYKNEPAAVREAADQLNKRLIKEDIPLHVLPGQEIRIYGEVEQDLAKRQLLSLNDTKYILIEFPFDHVPRYAEQLFYDLQLKGYIPVIAHPERNREIRENPSLLYHLVEKGAASQITSGSLAGIFGKQLKAFSLRLVEANLIHFVASDAHNVKTRNFHTQEALYVLEKEFGSELPYMLTENAELLLRNQTIFRQPPQPVKRRKLFGFF
Question: B4 was tested. Which binding (TkmA (B. subtilis 168)) did it give?
Answer: binds

B5: SalA (protein, UniProt P50863 1-352)
chain: MIREDEVRKLVGEMREPFLQRPLGELDAVKEIKIKPEKRHISVKVALAKTGTAEQMQIQQEIVNVLKGAGAETVGLRFEELPEETVAKFRAPSAEKKTLLNMDNPPVFLAVASGKGGVGKSTVSVNLAISLARLGKKVGLIDADIYGFSVPDMMGITVRPTIEGEKLLPVERFGVKVMSMGFFVEENAPVVWRGPMLGKMLNNFFHEVEWGEVDYIVLDLPPGTGDVALDVHTMLPSCKEIIVSTPHPTAAFVAARAGSMAIKTDHEVVGVIENMAYYESAKTGEREYVFGKGGGDKLAEELNVPLLGRIPLKQPDWDKDQFAPSVYDENHPIGEIYQDIAKKIDAKMSVQV
Question: B5 was tested. Which binding (PtkA (B. subtilis 168)) did it give?
Answer: binds

B6: Strep-tagged MinD (protein, UniProt Q01464 1-268)
chain: MGEAIVITSGKGGVGKTTTSANLGTALAILGKRVCLVDTDIGLRNLDVVMGLENRIIYDLVDVVEGRCKMHQALVKDKRFDDLLYLMPAAQTSDKTAVAPEQIKNMVQELKQEFDYVIIDCPAGIEQGYKNAVSGADKAIVVTTPEISAVRDADRIIGLLEQEENIEPPRLVVNRIRNHLMKNGDTMDIDEIVQHLSIDLLGIVADDDEVIKASNHGEPIAMDPKNRASIAYRNIARRILGESVPLQVLEEQNKGMMAKIKSFFGVRS
Question: Which results are given for B6?
Answer: binding [1]: binds; binding [2]: no binding

B7: C-terminal domain of MinD I (aa135-268) (domain or fragment, UniProt Q01464 135-268)
chain: GADKAIVVTTPEISAVRDADRIIGLLEQEENIEPPRLVVNRIRNHLMKNGDTMDIDEIVQHLSIDLLGIVADDDEVIKASNHGEPIAMDPKNRASIAYRNIARRILGESVPLQVLEEQNKGMMAKIKSFFGVRS
Question: B7 was tested. Which binding (PtkA (B. subtilis 168)) did it give?
Answer: binds

B8: MinD (protein, UniProt Q01464 1-268)
chain: MGEAIVITSGKGGVGKTTTSANLGTALAILGKRVCLVDTDIGLRNLDVVMGLENRIIYDLVDVVEGRCKMHQALVKDKRFDDLLYLMPAAQTSDKTAVAPEQIKNMVQELKQEFDYVIIDCPAGIEQGYKNAVSGADKAIVVTTPEISAVRDADRIIGLLEQEENIEPPRLVVNRIRNHLMKNGDTMDIDEIVQHLSIDLLGIVADDDEVIKASNHGEPIAMDPKNRASIAYRNIARRILGESVPLQVLEEQNKGMMAKIKSFFGVRS
Question: Which results are given for B8?
Answer: binding (PtkA (B. subtilis 168)): binds; binding (PtkB (B. subtilis 168)): binds; binding (TkmA (B. subtilis 168)): no binding

B9: C-terminal domain of MinD II (aa89-268) (domain or fragment, UniProt Q01464 89-268)
chain: AAQTSDKTAVAPEQIKNMVQELKQEFDYVIIDCPAGIEQGYKNAVSGADKAIVVTTPEISAVRDADRIIGLLEQEENIEPPRLVVNRIRNHLMKNGDTMDIDEIVQHLSIDLLGIVADDDEVIKASNHGEPIAMDPKNRASIAYRNIARRILGESVPLQVLEEQNKGMMAKIKSFFGVRS
Question: How did the binding (PtkA (B. subtilis 168)) turn out when B9 was run?
Answer: binds

From article PMC4205851, “Protein-tyrosine phosphorylation interaction network in Bacillus subtilis reveals new substrates, kinase activators and kinase cross-talk” (Frontiers in Microbiology, 2014)
